From US10641782B2, “Methods for visualization and quantification of fiber-like structures” (The Board of Trustees of the Leland Stanford Junior …, priority 2016, dated 2020)
At least one structure is not confirmed: it was looked up by name or label, or the drawing left a doubt.

Assays:
mPFC neurons = assay: CAPTURE quantification of projections from behaviorally-active mPFC neurons (red/green streamline ratio); type: in vivo, mice; details: n=6 per group
[1] = 3-chamber place preference test; type: in vivo, mice; details: 15 mg/kg cocaine, two days of exposure, n=5 per group

SMILES: COC(=O)[C@H]1[C@@H](OC(=O)c2ccccc2)C[C@@H]2CC[C@H]1N2C [Cocaine, cocaine]
- projections from behaviorally-active mPFC neurons targeting the NAc (mPFC neurons; cocaine-exposed (15 mg/kg IP, two days) compared to shock-exposed Ai14 mice): significantly more projections
- red/green (activity/structure) ratio in mPFC projections to the VTA (mPFC neurons; cocaine-exposed vs shock-exposed Ai14 mice): No significant difference
- preference for the side where cocaine was given [1]: place preference
